In US20060058231A1:
Results are given in words; binding and its absence hold for the method and conditions named. Some entries that bind do so weakly or less than the wild type. For part of these data: Tags and fused reporters may be left off the sequences shown. Values belong to the substance of their own block, whether it stands above or below them.

The chains behind the UniProt entries cited, without tags or fusion partners. Where a name states a change or a piece, a line headed by the entry shows the natural chain unless it says otherwise. Residues count along the entry.
UniProt P27037, residues 20-134: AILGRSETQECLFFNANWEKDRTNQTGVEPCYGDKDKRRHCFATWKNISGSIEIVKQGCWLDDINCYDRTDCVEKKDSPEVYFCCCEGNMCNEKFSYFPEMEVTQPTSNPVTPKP
UniProt P36894, residues 24-152: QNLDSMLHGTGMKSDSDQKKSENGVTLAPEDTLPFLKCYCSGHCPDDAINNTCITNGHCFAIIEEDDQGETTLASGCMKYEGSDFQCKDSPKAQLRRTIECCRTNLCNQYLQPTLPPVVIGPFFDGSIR
UniProt P18075: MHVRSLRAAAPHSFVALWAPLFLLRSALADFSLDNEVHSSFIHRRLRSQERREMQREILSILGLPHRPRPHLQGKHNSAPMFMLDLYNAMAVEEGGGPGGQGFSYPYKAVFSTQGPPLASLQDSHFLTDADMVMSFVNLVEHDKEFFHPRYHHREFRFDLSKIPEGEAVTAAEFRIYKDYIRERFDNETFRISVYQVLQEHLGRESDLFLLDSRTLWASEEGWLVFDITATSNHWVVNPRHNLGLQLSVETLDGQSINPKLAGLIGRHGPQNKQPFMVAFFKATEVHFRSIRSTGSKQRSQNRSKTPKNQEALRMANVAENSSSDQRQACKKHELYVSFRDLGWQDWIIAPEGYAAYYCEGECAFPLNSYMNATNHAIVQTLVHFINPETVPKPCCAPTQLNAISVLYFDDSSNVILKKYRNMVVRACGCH

How the values were obtained:
[1] = biological target: T1, BMPRIb receptor/Fc fusion (R&D Systems) (UniProt O00238); assay: AlphaScreen competition with biotinylated Y65N/S120D BMP-7
T1 sequence (looked up): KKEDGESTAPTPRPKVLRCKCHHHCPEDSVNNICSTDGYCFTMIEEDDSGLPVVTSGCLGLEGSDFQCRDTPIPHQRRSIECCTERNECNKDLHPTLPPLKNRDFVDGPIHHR

[2] = biological target: T2, BMPRII receptor/Fc fusion (R&D Systems) (UniProt Q13873); assay: as above
T2 sequence (looked up): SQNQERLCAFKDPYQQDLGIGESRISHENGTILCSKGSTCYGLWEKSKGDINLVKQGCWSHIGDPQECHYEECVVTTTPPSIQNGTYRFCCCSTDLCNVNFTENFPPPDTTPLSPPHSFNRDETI

[3] = biological target: ActRIIa receptor/Fc fusion (R&D Systems) (UniProt P27037); assay: as above
[4] = biological target: T1, BMPRIb receptor/Fc fusion (R&D Systems); assay: AlphaScreen competition: unlabeled BMP-7 titrated against biotinylated Y65N/S120D BMP-7 for BMPRIb-Fc; y axis 0-100 without label [upper left panel with the sheet upright (A by the legend); letter not given]
[5] = biological target: ActRIIa receptor/Fc fusion (R&D Systems) (UniProt P27037); assay: AlphaScreen competition: unlabeled BMP-7 titrated against biotinylated Y65N/S120D BMP-7 for ActRIIa-Fc; y axis 0-100 without label [upper left panel with the sheet upright (A by the legend); letter not given]
[6] = biological target: T2, BMPRII receptor/Fc fusion (R&D Systems); assay: AlphaScreen competition: unlabeled BMP-7 titrated against biotinylated Y65N/S120D BMP-7 for BMPRII-Fc; y axis 0-100 without label [upper left panel with the sheet upright (A by the legend); letter not given]
[7] = biological target: ActRIIa receptor/Fc fusion (R&D Systems) (UniProt P27037); assay: plate direct binding assay, receptor-Fc detection, 12-point dilution of conditioned media
[8] = biological target: T2, BMPRII receptor/Fc fusion (R&D Systems); assay: AlphaScreen competition: unlabeled variant titrated against biotinylated Y65N/S120D BMP-7 for BMPRII-Fc; y axis 0-100 without label [upper right panel with the sheet upright (B by the legend); letter not given]
[9] = biological target: T1, BMPRIb receptor/Fc fusion (R&D Systems); assay: AlphaScreen competition: unlabeled variant titrated against biotinylated Y65N/S120D BMP-7 for BMPRIb-Fc; y axis 0-100 without label [upper right panel with the sheet upright (B by the legend); letter not given]
[10] = biological target: ActRIIa receptor/Fc fusion (R&D Systems) (UniProt P27037); assay: AlphaScreen competition: unlabeled variant titrated against biotinylated Y65N/S120D BMP-7 for ActRIIa-Fc; y axis 0-100 without label [upper right panel with the sheet upright (B by the legend); letter not given]
[11] = biological target: T2, BMPRII receptor/Fc fusion (R&D Systems); assay: plate direct binding assay, receptor-Fc detection, 12-point dilution of conditioned media
[12] = biological target: BMPRIa receptor/Fc fusion (R&D Systems) (UniProt P36894); assay: fluorescence polarization and intensity; labeled BMP-7 added to serial dilutions of receptor/Fc
[13] = biological target: T3, ActRIIb receptor/Fc fusion (R&D Systems) (UniProt Q13705); assay: as above
T3 sequence (looked up): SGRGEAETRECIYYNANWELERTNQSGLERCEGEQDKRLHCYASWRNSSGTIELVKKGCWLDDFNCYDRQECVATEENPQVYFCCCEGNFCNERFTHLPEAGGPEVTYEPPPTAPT

[14] = biological target: ActRIIa receptor/Fc fusion (R&D Systems) (UniProt P27037); assay: as above
[15] = biological target: BMPRIa receptor/Fc fusion (R&D Systems) (UniProt P36894); assay: fluorescence anisotropy, labeled BMP-7 added to serial dilutions of receptor/Fc fusion (x axis [receptor] uM)
[16] = biological target: T3, ActRIIb receptor/Fc fusion (R&D Systems); assay: as above
[17] = biological target: ActRIIa receptor/Fc fusion (R&D Systems) (UniProt P27037); assay: as above
[18] = biological target: ActRIIa receptor/Fc fusion (R&D Systems) (UniProt P27037); assay: fluorescence anisotropy, single point with 10 uM ActRIIa
[19] = biological target: T1, BMPRIb receptor/Fc fusion (R&D Systems); assay: AlphaScreen competition: unlabeled variant titrated against biotinylated Y65N/S120D BMP-7 for BMPRIb-Fc; y axis 0-100 without label [lower left panel with the sheet upright (C by the legend); letter not given]
[20] = biological target: ActRIIa receptor/Fc fusion (R&D Systems) (UniProt P27037); assay: AlphaScreen competition: unlabeled variant titrated against biotinylated Y65N/S120D BMP-7 for ActRIIa-Fc; y axis 0-100 without label [lower left panel with the sheet upright (C by the legend); letter not given]
[21] = biological target: T2, BMPRII receptor/Fc fusion (R&D Systems); assay: AlphaScreen competition: unlabeled variant titrated against biotinylated Y65N/S120D BMP-7 for BMPRII-Fc; y axis 0-100 without label [lower left panel with the sheet upright (C by the legend); letter not given]
[22] = biological target: ActRIIa receptor/Fc fusion (R&D Systems) (UniProt P27037); assay: AlphaScreen competition: unlabeled variant titrated against biotinylated Y65N/S120D BMP-7 for ActRIIa-Fc; y axis 0-100 without label [lower right panel with the sheet upright (D by the legend); letter not given]
[23] = biological target: BMPRIa receptor/Fc fusion (R&D Systems) (UniProt P36894); assay: plate direct binding assay, BMP-7 from conditioned medium captured by anti-BMP-7 antibody, receptor-Fc titrated in 12 points; EC50 drawn as a bar, no number given
[24] = biological target: ActRIIa receptor/Fc fusion (R&D Systems) (UniProt P27037); assay: as above

binding [11]: binds
Substance: BMP-7 variant M23N (from UniProt P18075 293-431 at identity 0.99)) (ligand)

binding [12]: binds
binding [13]: binds
binding [14]: binds
Substance: fluorescently labeled BMP-7 (variant Y65N/S120D labeled with AlexaFluor 568 or with C6-FXS) (from UniProt P18075 293-431 at identity 0.98)) (ligand)

binding [15]: binds
binding [16]: binds
binding [17]: binds
binding [18]: binds
Substance: Alexa568-labeled Y65N/S120D BMP-7 (from UniProt P18075 293-431 at identity 0.98)) (ligand)

binding [19]: binds
binding [20]: binds
binding [21]: binds
binding [1]: binds
binding [2]: binds
binding [3]: binds
Substance: BMP-7 variant 526 (K39S/S120D/R134E) (from UniProt P18075 293-431 at identity 0.97)) (ligand)

binding [11]: binds
Substance: BMP-7 variant Q53G (from UniProt P18075 293-431 at identity 0.99)) (ligand)

binding [22]: binds
binding [3]: binds
binding [23]: binds
binding [24]: binds
Substance: BMP-7 variant 504 (Y65N/S120D) (from UniProt P18075 293-431 at identity 0.98)) (ligand)

The next lines start with the substance.

Substance: recombinant human BMP-7 (R&D Systems) (from UniProt P18075 293-431 at identity 0.99)) (ligand)
binding [1]: binds
binding [2]: binds
binding [3]: binds
binding [4]: binds
binding [5]: binds
binding [6]: binds

Substance: BMP-7 variant Q53H (from UniProt P18075 293-431 at identity 0.99)) (ligand)
binding [7]: binds

Substance: BMP-7 variant 565 (Y65N/F93T/R129D) (from UniProt P18075 293-431 at identity 0.97)) (ligand)
binding [1]: binds
binding [2]: binds
binding [3]: binds
binding [8]: binds
binding [9]: binds
binding [10]: binds

Substance: BMP-7 variant I86D (from UniProt P18075 293-431 at identity 0.99)) (ligand)
binding [7]: binds
